# Laboratory results published in PubChem BioAssay AID493014 (National Center for Advancing Translational Sciences (NCATS), 2011).
# Screen size: about 340,000 compounds; about 170 (0.05%) were called active. The inconclusive results got no clear call from the source; some entries with a clear call stand among them for comparison. Calls follow the shape of the dose curve; as a rule, active = well fitted inhibition curve with a large enough effect in the signal ratio, with a control signal flat (not every such curve was filed as active); inconclusive = small, poorly fitted or top-dose-only effect, or effect the other way, or a change in a side signal; inactive = flat fitted curve, though single readings scatter; the % refers to the signal ratio. Potencies of inconclusive entries are doubtful fits and often do not repeat.
# Assay: qHTS Assay to Find Inhibitors of Chronic Active B-Cell Receptor Signaling;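 as to activity change, negative = inhibition: plate controls were basal doxycycline-induced cells for no effect and cells given 10 µM MG132 for full effect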
# Conditions: ABC-DLBCL IkBa-CBG/CBR reporter, luminescence ratio (green luciferase fused to IkBa over red control in TMD8 lymphoma cells), 4 h; activity change, negative = inhibition: at 46.1 µM (top of the series)
# Outline: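 Doxycycline induced both beetle luciferases in TMD8 lymphoma cells; IKK-driven degradation limits the IkappaBalpha-fused green signal, while red luminescence normalises for cell number and nonspecific effects. Compounds tested up to 46 uM, 4 hrs.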
# Potency is read from the fitted curve at half-maximal effect.
Structure (SMILES),Potency,"activity change, negative = inhibition"
COc1ccc(N(C(=O)c2cccc([N+](=O)[O-])c2)S(=O)(=O)c2cccs2)cc1,"inconclusive: 11.2 µM [falling, single point]",–
CCNC(=S)N(CCN(CC)CC)Cc1cc2cc3c(cc2[nH]c1=O)OCCO3,"inconclusive: 10 µM [falling, partial curve, poor fit]",–
COc1ccc(-c2csc(Nc3ccccn3)n2)cc1OC,"inconclusive: 15.8 µM [falling, partial curve, poor fit]",–
COc1ccc2[nH]c3c(N4CCC(O)(c5cccc(C(F)(F)F)c5)CC4)ncnc3c2c1,–,inconclusive: -6.78%
C/C(=N/NS(C)(=O)=O)c1ccc2ccccc2c1,–,inconclusive: 11.3%
CC(C)c1cc(C(=O)Nc2ccc3c(c2)OCO3)no1,"inconclusive: 29.1 µM [rising, single point]",–
CCOC(=O)c1sc2nc(N3CCCC3)c3c(c2c1N)CC(C)(C)OC3,–,inconclusive: 1.97%
Cc1cccc(N2C(=O)N(Cc3cc(=O)n4ccccc4n3)c3ccccc3S2(=O)=O)c1,"inconclusive: 0.794 µM [falling, full curve, poor fit]",–
COC(=O)C1=C(C)N(CC(C)C)C(=O)/C1=C\c1cccs1,–,inconclusive: -27%
Cc1cc(C)cc(OCC(O)CN2CCC(CN3C(=O)c4cccc5cccc(c45)C3=O)CC2)c1 (stereo unspecified),–,inconclusive: 8.07%
CC(=O)Nc1ccc2nc(-c3ccccn3)[nH]c2c1,–,inconclusive: -15.5%
Cc1ccc(S(=O)(=O)Nc2c(Cl)c(Cl)c(O)c3ccccc23)cc1,–,inconclusive: -12.2%
CC(C)C[C@H]1CN=C(Nc2ccccc2)N1CC1CCCCCC1,–,inactive: -13.3%
CCN1CCN(Cc2ccc(NC(=O)c3cc(NC(=O)c4nccnc4N)cc(OC)c3)cc2C(F)(F)F)CC1,–,inconclusive: -15.1%
O=C(/C=C\Nc1cccc(F)c1)c1ccc2c(c1)OCO2,"inconclusive: 15.8 µM [falling, partial curve]",–
Cc1oc(-c2ccc(Cl)cc2)nc1CN1CCC(C(=O)NCc2cccnc2)CC1,–,inconclusive: -11.9%
C/C(=N\Nc1ccc(Cl)cc1)c1ccccn1,"inconclusive: 0.517 µM [rising, full curve, poor fit]",–
CN(C(=O)COC(=O)c1nc(Cl)c(Cl)c(Cl)c1Cl)C1CCS(=O)(=O)C1 (stereo unspecified),"inconclusive: 4.47 µM [falling, partial curve, poor fit]",–
CC1CN(C(=O)COC(=O)c2ccc(Cl)nc2)CC(C)O1 (stereo unspecified),–,inactive: -0.301%
COc1cccc(C(C(=O)NC2CCCC2)N(Cc2ccccc2OC)C(=O)c2ccco2)c1 (stereo unspecified),–,inconclusive: 3.44%
S=C(NCCc1c[nH]c2ccccc12)NC1CCCCC1,–,inconclusive: 5.59%
Fc1ccc(-n2[nH]nnc2=S)cc1N1CCCC1,–,inactive: 0.649%
Cc1ccccc1Nc1nc(N)nc(CSc2nc3ccccc3c(=O)n2CCCO)n1,–,inconclusive: -10.4%
COc1cccc(-c2c(C(=O)N/N=C/c3ccsc3)nnn2-c2nonc2N)c1,–,inactive: 2.92%
CCCNC(=O)c1ccccc1NC(=O)C1COc2ccccc2O1 (stereo unspecified),–,inconclusive: 7.95%
O=C(NCc1nc2ccccc2[nH]1)C1=C[C@H](c2ccccc2)C[C@H](OCCCCO)O1,–,inconclusive: 1.15%
CC(C)(C)n1nnnc1C(c1cccs1)N1CCN(c2ccccc2)CC1 (stereo unspecified),–,inconclusive: 14.1%

# 4 of the compounds above, bar-delimited:
Structure (SMILES) | Potency | activity change, negative = inhibition
CC(C)C[C@H]1CN=C(Nc2ccccc2)N1CC1CCCCCC1 | – | inactive: -13.3%
CCN1CCN(Cc2ccc(NC(=O)c3cc(NC(=O)c4nccnc4N)cc(OC)c3)cc2C(F)(F)F)CC1 | – | inconclusive: -15.1%
O=C(/C=C\Nc1cccc(F)c1)c1ccc2c(c1)OCO2 | inconclusive: 15.8 µM [falling, partial curve] | –
Cc1oc(-c2ccc(Cl)cc2)nc1CN1CCC(C(=O)NCc2cccnc2)CC1 | – | inconclusive: -11.9%

# (listing goes on)

Structure (SMILES),Potency,"activity change, negative = inhibition"
Cc1cc(C)n2ncc(-c3cccc(Br)c3)c2n1,–,inconclusive: 3.83%
COc1ccc(CNC(=O)C/C(C)=N/NC(=O)COc2ccc(C)cc2Br)cc1,–,inconclusive: -23.4%
COc1ccc(C(C)=O)cc1COC(=O)c1c(C)noc1C,–,inactive: -3.87%
CCN1C/C(=N\S(=O)(=O)/N=C2\CN(CC)C(=O)N2CC)N(CC)C1=O,–,inconclusive: 7.15%
Cc1ccc(C(=O)N2CCN(C(=O)c3ccccc3)C2c2ccc(N(C)C)cc2)cc1 (stereo unspecified),–,inconclusive: 0.794%
CCN(CC)S(=O)(=O)c1ccc(N/N=C/c2cc(OC)c(OC)cc2OC)nc1,–,inconclusive: 2.54%
CCN(CC)C(=O)c1ccc(C(=O)c2ccccc2)cc1,–,inactive: 8.46%
CCCn1nnc(NC(=O)c2cccc(OCc3ccccc3)c2)n1,"inconclusive: 23.1 µM [falling, single point]",–
O=C1NC(c2ccccc2)=N/C1=C/c1ccco1,–,inactive: 3.64%
CCCCCc1ccc(-c2ccc(/C=C/C(N)=O)cc2)nc1,"inconclusive: 20.6 µM [falling, partial curve]",–
Cc1ccc(S(=O)(=O)N2CCOCC2)cc1NC(=O)COC(=O)c1cnc(Cl)c(Cl)c1,–,inactive: 6.26%
Cc1ccc2c(c1)C(=O)C(=O)N2Cc1ccc(Br)cc1,–,inactive: -12.7%
CN(C)c1ccc(-c2cccc(C3CC=CC4C3C(=O)N(Cc3ccccc3)C4c3ccc4ccccc4c3)c2)cc1 (stereo unspecified),–,inconclusive: 6.25%
CCOC(=O)CSc1n[nH]c(NS(=O)(=O)c2ccccc2C(F)(F)F)n1,–,inactive: -0.459%
Cc1cccc2sc(N(CCN3CCOCC3)C(=O)CCS(=O)(=O)c3ccccc3)nc12,–,inconclusive: 10.7%
O=C(CCn1c(=O)[nH]c2ccsc2c1=O)N1CCN(c2cccc(Cl)c2)CC1,–,inactive: 6.79%
CN1CCc2c(sc3c2c(=O)n(-c2ccccc2)c2nnc(SCc4ccc(Cl)cc4)n32)C1,–,inconclusive: 19.5%
NNc1nc(-c2ccccc2)cc(-c2ccccc2)n1,–,inconclusive: -10.4%
CCNC(=S)NNc1nnc(-c2ccccc2)c(-c2ccccc2)n1,–,inactive: 0.32%
O=C(Nc1nc(-c2ccc(Cl)s2)cs1)c1ccccc1,"inconclusive: 2.31 µM [falling, partial curve]",–
Oc1ccc(/C=C/c2ccc3cccc(O)c3n2)cc1Br,–,inconclusive: -11.3%
CCOc1ccc(C(C)=O)cc1N1C(=O)C2C3C=CC(O3)C2C1=O (stereo unspecified),–,inconclusive: -0.61%
COc1ccc(C)cc1NC(=O)Nc1ccc2c(c1)CCC2,–,inconclusive: 16%
CCN(CC)CCN1C(=O)C(=O)/C(=C(/O)c2cnn(-c3ccccc3)c2C)C1c1ccc(C)o1 (stereo unspecified),–,inconclusive: 19.5%
CC(C)Cc1nnc(NC(=O)CSc2nc(O)c(-c3ccccc3)c(=O)[nH]2)s1,–,inconclusive: 0.991%
Cc1ccc(-n2c(C)cc(/C=C3\SC(=O)NC3=O)c2C)cc1,–,inconclusive: 3.41%
Cc1ccc(OCc2ccc(C(=O)NCC3CCCO3)cc2)cc1 (stereo unspecified),–,inactive: -4.15%

# In another format: two of the compounds above.
Structure (SMILES) | Potency | activity change, negative = inhibition
COc1ccc(CNC(=O)C/C(C)=N/NC(=O)COc2ccc(C)cc2Br)cc1 | – | inconclusive: -23.4%
CCCCCc1ccc(-c2ccc(/C=C/C(N)=O)cc2)nc1 | inconclusive: 20.6 µM [falling, partial curve] | –

# The list goes on.

Structure (SMILES),Potency,"activity change, negative = inhibition"
CCCN1CCN(C(=O)c2ccc(CS(=O)c3ccc(F)cc3)o2)CC1 (stereo unspecified),–,inactive: 1.03%
O=C(c1ccc2nc(N3CCCCC3)sc2c1)N1CCN(c2ccccn2)CC1,–,inconclusive: 5.83%
O=C(CSc1ncnc2nc[nH]c12)Nc1nnc(SCc2ccc(Cl)c(Cl)c2)s1,–,inconclusive: 4.16%
O=C(Nc1cccc(NC(=O)c2cccs2)c1)c1ccc(Br)cc1,–,inconclusive: -5.73%
C[C@]12CCC(=O)C=C1CC[C@@H]1[C@@H]2[C@@H](O)C[C@@]2(C)[C@H]1CC[C@]2(O)C(=O)CO,"inconclusive: 0.501 µM [falling, full curve, poor fit]",inconclusive: -10.4%
COc1ccccc1NC(=O)COC(=O)/C=C/c1cccs1,–,inconclusive: -14.8%
CCOc1ccccc1OCCn1nnc2ccccc21,–,inconclusive: -2.68%
Cc1ccc(S(=O)(=O)NCC(=O)N/N=C/c2ccccc2O)cc1,–,inactive: -3.37%
COc1cccc(Oc2cc(Cl)nc(N)n2)c1,–,inconclusive: -3.96%
C/C(=N\NC(=O)c1ccccc1)c1c(C)[nH]n(-c2ccccc2)c1=O,"inconclusive: 11.2 µM [falling, partial curve]",–
O=C(Nc1ncccc1O)c1ccc2c(c1)OCO2,"inconclusive: 29.1 µM [falling, single point]",–
CCNCc1cc(Cl)c(OCc2ccccc2)c(OCC)c1,–,inconclusive: -8.19%
CCC(C)NC(=O)C(CCSC)NC(=O)c1ccccc1 (stereo unspecified),–,inconclusive: -3.92%
COc1ccc(C2Nc3ccccc3C(=O)N2c2ccccc2)cc1CSc1ccccn1 (stereo unspecified),"inconclusive: 18.4 µM [falling, single point]",–
Cc1ccccc1/C=N\NC(=O)c1ccccc1-n1cccc1,–,inconclusive: -11.1%
COc1ccc2nc(C)cc(SCC(=O)N3CCCCC3)c2c1,–,inconclusive: -1.88%
COc1ccc(Br)cc1C(=O)Nc1cccc(C)c1C,–,inconclusive: 3.23%
COc1c(OC(C)=O)c(=O)n2c3ccccc3c3ccnc1c32,–,inconclusive: -13.6%
O=C1CC(c2ccc3c(c2)OCCO3)Oc2ccc([N+](=O)[O-])cc21 (stereo unspecified),"inconclusive: 7.08 µM [falling, partial curve]",–
Cc1cccc(C)c1NC(=O)CNC(=O)C(NC(=O)c1ccc(C(C)(C)C)cc1)C(C)C (stereo unspecified),"inconclusive: 0.92 µM [falling, partial curve, poor fit]",–
Cc1cccc(OCc2n(CC(=O)OC3CC(C)CCC3C(C)C)c3ccccc3[n+]2C)c1 (stereo unspecified),"inconclusive: 20 µM [falling, partial curve]",–
N#Cc1c(N2C(=O)Nc3ccccc3N2O)sc2c1CCCC2,"inconclusive: 15.8 µM [falling, partial curve]",–
COc1cccc(N2C(=O)CC(N3CCc4ccccc43)C2=O)c1 (stereo unspecified),"inconclusive: 20.6 µM [falling, partial curve]",–
O=C(N/N=C/c1c[nH]c2ccccc12)c1cc(-c2ccccc2)n[nH]1,–,inconclusive: -11.8%
O=C(Nc1ccc2c(c1)OCO2)C(c1ccccc1)N1CCC2(CC1)OCCO2 (stereo unspecified),–,inconclusive: 7.25%
O=C(NCC1CCCO1)c1ccc(CS(=O)(=O)c2ccc(Br)cc2)o1 (stereo unspecified),–,inconclusive: 0.472%
